Results are given in words; binding and its absence hold for the method and conditions named. In cells and extracts the contact can be indirect. Here binding means that the protein was enriched with, or labelled near, the bait; the list need not be complete.

Sequences of proteins named here, by UniProt entry; tags and fusion partners are left off.
UniProt Q93009: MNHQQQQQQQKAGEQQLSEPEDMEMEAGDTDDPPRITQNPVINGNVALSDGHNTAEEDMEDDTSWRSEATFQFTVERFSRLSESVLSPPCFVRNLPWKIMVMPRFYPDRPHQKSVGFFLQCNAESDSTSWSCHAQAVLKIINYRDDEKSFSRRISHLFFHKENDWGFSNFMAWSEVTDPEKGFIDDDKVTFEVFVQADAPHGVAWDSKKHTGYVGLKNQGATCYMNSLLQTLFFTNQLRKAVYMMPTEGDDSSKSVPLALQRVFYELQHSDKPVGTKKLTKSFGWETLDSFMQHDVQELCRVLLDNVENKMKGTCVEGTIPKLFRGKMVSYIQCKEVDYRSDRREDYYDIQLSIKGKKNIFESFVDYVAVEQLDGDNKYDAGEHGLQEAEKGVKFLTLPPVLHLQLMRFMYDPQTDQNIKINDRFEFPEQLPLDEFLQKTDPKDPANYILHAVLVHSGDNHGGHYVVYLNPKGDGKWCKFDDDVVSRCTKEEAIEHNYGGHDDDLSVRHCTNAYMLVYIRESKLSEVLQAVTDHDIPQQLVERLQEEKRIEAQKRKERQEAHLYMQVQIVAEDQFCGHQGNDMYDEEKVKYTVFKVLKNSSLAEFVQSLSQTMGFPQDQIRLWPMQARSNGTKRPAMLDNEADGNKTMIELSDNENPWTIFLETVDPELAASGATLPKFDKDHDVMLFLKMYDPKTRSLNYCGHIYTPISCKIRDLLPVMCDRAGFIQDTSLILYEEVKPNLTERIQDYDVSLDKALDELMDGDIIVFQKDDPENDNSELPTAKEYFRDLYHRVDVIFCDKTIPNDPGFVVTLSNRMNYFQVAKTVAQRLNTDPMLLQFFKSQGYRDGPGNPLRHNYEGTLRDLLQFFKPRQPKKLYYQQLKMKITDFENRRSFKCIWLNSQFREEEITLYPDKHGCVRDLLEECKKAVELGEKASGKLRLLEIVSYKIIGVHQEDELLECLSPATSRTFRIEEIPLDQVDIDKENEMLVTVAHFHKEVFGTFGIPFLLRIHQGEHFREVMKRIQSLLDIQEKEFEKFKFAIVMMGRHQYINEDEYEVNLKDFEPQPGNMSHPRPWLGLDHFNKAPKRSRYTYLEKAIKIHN

The record followed here is paper PMC10464189.

The assay deals with fat mass and obesity-associated protein (FTO), endogenous (human (endogenous in HEK 293 T and CFPAC-GM)) (UniProt Q9C0B1). Nature of the assay: affinity purification with mass spectrometry; IP/MS of FTO from CFPAC-GM total protein; primary antibody overnight at 4 C, protein G Dynabeads 1 h at room temperature, full gel lane analysed, compared with an IgG group; hits co-analysed with GEO GSE80617.

With “Ubiquitin-specific protease 7 (USP7), endogenous (from UniProt Q93009 1-1102) (enzyme)”, the binding result is given as “binds”.
